Structures can show the parent of a compound that is named as a salt. This is one part of the list. Cut-off read from the data, not from the text of the source: active = 0.7 or more and inactive = the rest. Repeats are few or missing, and single values can be far off.
These molecules were tested on MiaPaCa-2 CLSA-25 (assay: cell death relative to DMSO vehicle (fraction); higher = more cytotoxic). Conditions: 5 µM; treatment time 48 h; medium cystine 25 µM.

Compound	cell death
Cc1cc2nc3c(=O)[nH]c(=O)nc-3n(C[C@H](O)[C@H](O)[C@H](O)COP(=O)(O)O)c2cc1C [Flavin mononucleotide]	inactive: 0.0138
COc1cnc(NS(=O)(=O)c2ccc(N)cc2)nc1 [Sulfameter]	inactive: 0.095
CCOC(=O)c1ccc(NC2CCCCC2)c(N)c1 [Ferrostatin-1]	inactive: 0.246
C[C@]12CC[C@@H](O)C[C@@H]1CC[C@@H]1[C@@H]2CC[C@]2(C)C(=O)CC[C@@H]12 [Androsterone]	inactive: 0.272
O=C1C(O)=C([C@H]2CC[C@H](c3ccc(Cl)cc3)CC2)C(=O)c2ccccc21 [Atovaquone]	inactive: 0.63
COc1ccc(-c2ccc3cc(C(=O)O)ccc3c2)cc1C12CC3CC(CC(C3)C1)C2 [Adapalene]	inactive: 0.173
C=CC1=C(C(=O)O)N2C(=O)[C@@H](NC(=O)/C(=N\O)c3csc(N)n3)[C@H]2SC1 [Cefdinir]	inactive: 0.000268
NC(=O)c1ncn([C@@H]2O[C@H](CO)[C@@H](O)[C@H]2O)c1N [AICAR (Acadesine)]	inactive: 0.231
C[Se]CC[C@H](N)C(=O)O [L-(+)-Selenomethionine]	inactive: 0.267
CC(C)(CCCCCC(O)CCCCCC(C)(C)C(=O)O)C(=O)O	inactive: 0.0597
COC(=O)N[C@H](C(=O)N1CCC[C@H]1c1ncc(-c2ccc(-c3ccc(-c4cnc([C@@H]5CCCN5C(=O)[C@@H](NC(=O)OC)C(C)C)[nH]4)cc3)cc2)[nH]1)C(C)C [Daclatasvir dihydrochloride]	inactive: 0.246
